# Out of some 340,000 compounds screened, about 170 (0.05%) were called active. Inconclusive results, whose numbers are uncertain, are shown with a selection of clear calls. Calls follow the shape of the dose curve; as a rule, active = well fitted inhibition curve with a large enough effect in the signal ratio, with a control signal flat (not every such curve was filed as active); inconclusive = small, poorly fitted or top-dose-only effect, or effect the other way, or a change in a side signal; inactive = flat fitted curve, though single readings scatter; the % refers to the signal ratio. Potencies of inconclusive entries are doubtful fits and often do not repeat.
# Test: qHTS Assay to Find Inhibitors of Chronic Active B-Cell Receptor Signaling;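 as to activity change, negative = inhibition: plate controls were basal doxycycline-induced cells for no effect and cells given 10 µM MG132 for full effect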
# Conditions: ABC-DLBCL IkBa-CBG/CBR reporter, luminescence ratio (green luciferase fused to IkBa over red control in TMD8 lymphoma cells), 4 h; activity change, negative = inhibition: at 46.1 µM (top of the series)
# How it was run: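 Compounds up to 46 uM were incubated four hours with TMD8 cells whose green CBG68 luciferase is fused to IkappaBalpha; red CBR luminescence normalised the signal, and concentration-effect curves were fitted to fusion, red and ratio data.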
# Potency is read from the fitted curve at half-maximal effect.
Compound,"activity change, negative = inhibition",Potency
O=C(CNC(=S)N(CCCN1CCOCC1)Cc1cccs1)NCc1ccc(Cl)cc1,inconclusive: -6.68%,
C=CCn1c(=O)c2c(nc3n2CCCN3CCc2ccc(OC)c(OC)c2)n(C)c1=O,inactive,
CC(=O)Nc1ccc(Oc2nc(C(F)(F)F)nc3ccccc23)cc1,inconclusive: 8.36%,
CCOC(=O)CCSCC(=O)Nc1cc(C)on1,inconclusive: 11.9%,
Cc1ccc(C(=O)/C=C/c2ccccc2)o1,inconclusive: 2.25%,
O=C(CSc1ncn[nH]1)Nc1ccc(Cl)c(Cl)c1,inactive,
CCOc1ccccc1Nc1ncnc2c1cnn2-c1ccc(C)cc1,inconclusive: -21.3%,
c1ccc(-c2csc3ncnc(NCCCN4CCOCC4)c23)cc1,inactive,
NC(=O)c1ccc(-c2ncc(-c3ccccc3)o2)cc1,,"inconclusive: 11.2 µM [falling, partial curve]"
Cc1nnc(NC2(C(F)(F)F)C(=O)Nc3c2c(=O)n(C)c(=O)n3C)s1 (centres undefined),inconclusive: -14.8%,
COc1ccc(CN(C(=O)CN2C(=O)NC3(CCC(C)CC3)C2=O)C(C)Cc2cccs2)cc1 (centres undefined),inconclusive: -0.632%,
COc1cccc(NC(=O)CCCOc2cc(=O)n(C)c3ccccc23)c1,,"inconclusive: 3.66 µM [falling, full curve, poor fit]"
C=CCNC(=S)N/N=C/c1ccc(C(F)(F)F)cc1,,"inconclusive: 17.8 µM [falling, single point]"
O=C(Nc1ccc2c(c1)CCC2)c1cc(=O)[nH]c2ccccc12,inconclusive: 4.89%,
C(=N\Nc1nc(-c2ccccc2)cs1)/c1ccncc1,inconclusive: 356%,
Cc1ccc(C2=CC(=O)C[C@H](c3ccc(F)cc3)C2)cc1,inconclusive: 6.67%,
COc1ccc(CCN2CC(C(=O)OCC(=O)N(C)Cc3ccccc3)CC2=O)cc1OC (centres undefined),,"inconclusive: 23.1 µM [falling, single point]"
c1ccc(Nc2nc(-c3ccncc3)nc3ccccc23)cc1,inactive,
C=CCSc1nc2ccccc2n1C(=O)/C=C/c1cc(OC)c(OC)c(OC)c1,inconclusive: 9.99%,
COc1cc(SC)ccc1C(=O)Nc1cccc(C2OCCCO2)c1,,"inconclusive: 15.8 µM [falling, partial curve]"
C/C(CC(=O)Nc1ccccc1C#N)=N\NC(=O)c1ccncc1,inconclusive: -32.2%,
Cc1ccccc1OCCCC(=O)Nc1nccs1,,"inconclusive: 2.91 µM [rising, single point]"
CC1CCCC(C)N1C(=O)COC(=O)CSc1ccc([N+](=O)[O-])cc1 (centres undefined),inconclusive: -12.8%,
CC(C)(C)C(=O)/C=C1\SCC(=O)N1CC(=O)N1CCN(c2ccccc2)CC1,inconclusive: -1.53%,
CCCCNC(=O)c1ccc2c(SCC(=O)O)c3c(nc2c1)CCCC3,inconclusive: 2.8%,
CCOC(=O)N1CCN(CC(O)COC2CC(C)CCC2C(C)C)CC1 (centres undefined),inconclusive: 9.48%,
Cc1nc(C)c(-c2ccc(SCC(=O)Nc3ccccc3)nn2)s1,inactive,

# Look-ups from the results shown:
# activity change, negative = inhibition, Cc1ccc(C2=CC(=O)C[C@H](c3ccc(F)cc3)C2)cc1 is entered as inconclusive: 6.67%
# activity change, negative = inhibition, O=C(Nc1ccc2c(c1)CCC2)c1cc(=O)[nH]c2ccccc12 is entered as inconclusive: 4.89%
# activity change, negative = inhibition, O=C(CSc1ncn[nH]1)Nc1ccc(Cl)c(Cl)c1 is entered as inactive

# Next structures.

Compound,"activity change, negative = inhibition",Potency
Nc1c(C(=O)Nc2ccccc2)sc2nc(-c3cccnc3)ccc12,inconclusive: -17.9%,
N=C1/C(=C\c2ccc(OCc3ccccc3)cc2)C(=O)N=C2SC(N3CCCC3)=NN12,inconclusive: 5.77%,
COc1ccc(NC(=O)CN2C(=O)c3cccc4cccc2c34)c(OC)c1,inconclusive: -72%,
Cc1ccc(-n2cc(-c3ccccc3)c3c(N4CCCCC4)ncnc32)cc1,inconclusive: 7.31%,
CC(=O)c1cc(C(=O)Nc2ccccc2C(=O)O)oc1C,inconclusive: 251%,
Cc1ccc(C(=O)OCC(=O)c2ccccc2)cc1,,"inconclusive: 35.5 µM [falling, single point]"
CCOc1ccccc1OCCC(=O)Nc1ccc(F)c(Cl)c1,inconclusive: 0.0471%,
CC(C)[C@@H](NC(=O)C1CCC(CNC(=O)[C@H](Cc2ccccc2)NC(=O)OC(C)(C)C)CC1)C(=O)O (some centres undefined),inactive,
CCCCn1c(C2CCCCC2)nc2cc3[nH]c(=O)c(C(C)C)nc3cc21,inconclusive: 27.6%,
O=C(O)C1=C[C@H](c2ccc(F)cc2)C[C@H](OCc2ccc(CO)cc2)O1,inactive,
CCCCCOC(=O)C1=C(C)NC(=O)NC1c1ccc2c(c1)OCO2 (centres undefined),inactive,
COc1cc2c(cc1OC)CN(C(=O)CSc1ccc(F)cc1)CC2,inactive,
Nn1cnc2scc(-c3ccco3)c2c1=O,inconclusive: -8.35%,
COc1cc(OC)cc(C(=O)Nc2c(F)cccc2F)c1,,"inconclusive: 23.1 µM [falling, partial curve]"
Cc1ccc(C(=O)/C=C/c2ccc(F)cc2)o1,inconclusive: -27.2%,
CCN(CC)C(=O)C1CCCN(Cc2ccc3c(c2)OCO3)C1 (centres undefined),inconclusive: -17.3%,
Cc1cccc(C(=O)Nc2cccc(NC(=O)c3ccccc3)c2)c1,inconclusive: -1.28%,
CC(=O)N1CCN(CC(=O)Nc2cc(S(=O)(=O)N3CCOCC3)ccc2C)CC1,inconclusive: 6.96%,
C=CCOC(=O)C1=C[C@@H](c2csc3ccccc23)C[C@@H](OCc2ccc(CO)cc2)O1,inconclusive: 13.6%,
C/C(=N\NC(=O)c1ccco1)c1ccc(NC(=O)c2ccccc2)cc1,,"inconclusive: 28.2 µM [falling, partial curve]"
CN1C(=O)Cc2cc(S(=O)(=O)N3CCN(c4cccc(Cl)c4)CC3)ccc21,inconclusive: -0.876%,
Cc1ccc(C(=O)NCCC(=O)NCc2ccco2)cc1,inactive,
Cc1cc(/C=N/NC(=O)c2ccccc2F)c(C)n1-c1ccccc1,,"inconclusive: 35.5 µM [rising, single point]"
CC(C)CNC(=S)NC1CCCC1,inconclusive: -8.38%,
Cc1c(Cl)cccc1NC(=S)N1CCC(N(C)CC2CCCO2)CC1 (centres undefined),,"inconclusive: 20 µM [falling, single point]"
CC1Cc2ccccc2N1C(=S)NC(=O)c1ccc(Cl)cc1Cl (centres undefined),inconclusive: -1.31%,
COC(=O)c1ccccc1NC(=O)C12CCC(C)(C(=O)O1)C2(C)C (centres undefined),inconclusive: -1.93%,

# From PubChem BioAssay AID493014 (National Center for Advancing Translational Sciences (NCATS), 2011)
